PubChem BioAssay AID504808, Drosophila RNAi Screening Center | 2011

Assay: 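Fly genes required to hold E2F transcription in check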 (primary screen)
System: Drosophila S2 cells
Knock-down reagent: long dsRNA against Drosophila genes
Measurement: 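Firefly luciferase driven by E2F sites, normalised to Renilla luciferase on the same minimal promoter, measured by plate reader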
Scale: E2F firefly: higher = more E2F reporter activity; Renilla normaliser: higher = more normaliser reporter signal
Hit rule: 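a knock-down counted as active when the firefly/Renilla E2F signal rose above 50%, a threshold chosen arbitrarily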
In all, the deposit lists about 21,000 reagents; below is an unselected part of those with a known target gene and a result. In the full data, 18 (0.084%) are marked active. 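Raw counts without plate normalisation, one of two replicates; the ratio scores behind the calls were not deposited.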 Reagent sequences are not shown. Not stated in the record: the amount of reagent, the time to read-out.

Depletion of mbm [DRSC00319] came out at: E2F firefly, rep 1 = 88999; Renilla normaliser, rep 1 = 4524; inactive.
Chd3 [DRSC11114] showed E2F firefly, rep 1 = 1.23e5; Renilla normaliser, rep 1 = 5290; inactive.
Knock-down of CG2617 [DRSC02712] resulted in: E2F firefly, rep 1 = 97663; Renilla normaliser, rep 1 = 3976; inactive.
After knock-down of synr [DRSC02369] the results were E2F firefly, rep 1 = 1.69e5; Renilla normaliser, rep 1 = 5839; inactive.
CG1663 [DRSC06613] showed E2F firefly, rep 1 = 1.58e5; Renilla normaliser, rep 1 = 4885; inactive.
Axn [DRSC14120] showed E2F firefly, rep 1 = 84143; Renilla normaliser, rep 1 = 832; inactive.
Silencing of Atac2 [DRSC02053] gave: E2F firefly, rep 1 = 1.05e5; Renilla normaliser, rep 1 = 3616; inactive.
Silencing of Lcch3 [DRSC20257] came out at: E2F firefly, rep 1 = 8431; Renilla normaliser, rep 1 = 812; inactive.
CG34367 [DRSC02238] showed E2F firefly, rep 1 = 1.45e5; Renilla normaliser, rep 1 = 5270; inactive.
CG34367 [DRSC02850] gave E2F firefly, rep 1 = 1.51e5; Renilla normaliser, rep 1 = 5566; inactive.
Past1 [DRSC16784] gave E2F firefly, rep 1 = 1.47e5; Renilla normaliser, rep 1 = 6256; inactive.
After knock-down of CG9436 [DRSC05005] the results were E2F firefly, rep 1 = 84603; Renilla normaliser, rep 1 = 3438; inactive.
CG18636 [DRSC02685] scored E2F firefly, rep 1 = 1.08e5; Renilla normaliser, rep 1 = 4441; inactive.
After knock-down of CG7231 [DRSC03034], the record shows E2F firefly, rep 1 = 1.51e5; Renilla normaliser, rep 1 = 5206; inactive.
Depletion of CG8757 [DRSC11039] resulted in: E2F firefly, rep 1 = 1.36e5; Renilla normaliser, rep 1 = 7838; inactive.
With knock-down of kud [DRSC11086], the screen gave E2F firefly, rep 1 = 1.62e5; Renilla normaliser, rep 1 = 8319; inactive.
For CG15522 [DRSC15059], the values are E2F firefly, rep 1 = 1.14e5; Renilla normaliser, rep 1 = 6564; inactive.
CG5897 [DRSC10555] showed E2F firefly, rep 1 = 1.39e5; Renilla normaliser, rep 1 = 6754; inactive.
Silencing of Mec2 [DRSC20054] resulted in: E2F firefly, rep 1 = 1.44e5; Renilla normaliser, rep 1 = 4483; inactive.
For dor [DRSC18765], the values are E2F firefly, rep 1 = 1858; Renilla normaliser, rep 1 = 1048; inactive.
After knock-down of holn1 [DRSC02827] the results were E2F firefly, rep 1 = 81349; Renilla normaliser, rep 1 = 3670; inactive.

Sorted by “E2F firefly, rep 1” (descending): some entries from above
kud [DRSC11086] → E2F firefly, rep 1: 1.62e5; Renilla normaliser, rep 1: 8319; Outcome: inactive
CG8757 [DRSC11039] → E2F firefly, rep 1: 1.36e5; Renilla normaliser, rep 1: 7838; Outcome: inactive

The list goes on:
Depletion of Tmtc2 [DRSC00272] resulted in: E2F firefly, rep 1 = 80671; Renilla normaliser, rep 1 = 3258; inactive.
Knock-down of CG13502 [DRSC04147] came out at: E2F firefly, rep 1 = 1.00e5; Renilla normaliser, rep 1 = 4336; inactive.
With knock-down of ths [DRSC06153], the screen gave E2F firefly, rep 1 = 78478; Renilla normaliser, rep 1 = 3714; inactive.
CG33233 [DRSC08239] scored E2F firefly, rep 1 = 1.02e5; Renilla normaliser, rep 1 = 4359; inactive.
For Targ1 [DRSC11616] the deposit lists E2F firefly, rep 1 = 1.37e5; Renilla normaliser, rep 1 = 6981; inactive.
Knock-down of CG30026 [DRSC05276] resulted in: E2F firefly, rep 1 = 1.26e5; Renilla normaliser, rep 1 = 5563; inactive.
After knock-down of r-cup [DRSC20475], the screen gave E2F firefly, rep 1 = 1.31e5; Renilla normaliser, rep 1 = 7638; inactive.
With knock-down of CG10761 [DRSC17753], the record shows E2F firefly, rep 1 = 1.15e5; Renilla normaliser, rep 1 = 5776; inactive.
For bchs [DRSC03126], the entry reads E2F firefly, rep 1 = 1.30e5; Renilla normaliser, rep 1 = 4394; inactive.
ICA69 [DRSC11621] gave E2F firefly, rep 1 = 84141; Renilla normaliser, rep 1 = 3838; inactive.
For CG1582 [DRSC19732], the entry reads E2F firefly, rep 1 = 7895; Renilla normaliser, rep 1 = 720; inactive.
For y [DRSC18853] the deposit lists E2F firefly, rep 1 = 51247; Renilla normaliser, rep 1 = 4536; inactive.
CG15443 [DRSC00455] showed E2F firefly, rep 1 = 1.76e5; Renilla normaliser, rep 1 = 5915; inactive.
After knock-down of CG10338 [DRSC02039] the results were E2F firefly, rep 1 = 98218; Renilla normaliser, rep 1 = 3786; inactive.
For CG34458 [DRSC06925], the values are E2F firefly, rep 1 = 1.45e5; Renilla normaliser, rep 1 = 4806; inactive.
